Measurements published in the supplement of paper PMC4604168 (melanoma cell lines).
Some of the results follow. Repeats are few or missing, and single values can be far off.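 The apoptosis fraction was the count of cleaved-PARP antibody-stained nuclei relative to all DNA-stained nuclei, imaged in 1,536-well plates. Screening doses were set so most cells survived, and baseline and induced cleaved-PARP levels vary greatly across cell lines.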

Key:
Experiment in all cases: cleaved PARP positive nuclei fraction relative to DMSO control; melanoma cells; higher = more apoptosis
Details in all cases: library dose: low library concentration; 72 h
A101D = system: A101D
A2058 = system: A2058
C32 = system: C32
CBRC008 = system: CBRC008 (line from a melanoma biopsy)
CBRC014 = system: CBRC014 (line from a melanoma biopsy)
CBRC016 = system: CBRC016 (line from a melanoma biopsy)
CBRC017 = system: CBRC017 (line from a melanoma biopsy)
COLO792 = system: COLO792
COLO800 = system: COLO800
COLO829 = system: COLO829
G361 = system: G361
IPC-298 = system: IPC-298
IST-MEL1 = system: IST-MEL1
LOXIMVI = system: LOXIMVI

Row | Compound | cleaved PARP positive nuclei fraction (A101D) [%] | cleaved PARP positive nuclei fraction (A2058) [%] | cleaved PARP positive nuclei fraction (C32) [%] | cleaved PARP positive nuclei fraction (CBRC008) [%] | cleaved PARP positive nuclei fraction (CBRC014) [%] | cleaved PARP positive nuclei fraction (CBRC016) [%] | cleaved PARP positive nuclei fraction (CBRC017) [%] | cleaved PARP positive nuclei fraction (COLO792) [%] | cleaved PARP positive nuclei fraction (COLO800) [%] | cleaved PARP positive nuclei fraction (COLO829) [%] | cleaved PARP positive nuclei fraction (G361) [%] | cleaved PARP positive nuclei fraction (IPC-298) [%] | cleaved PARP positive nuclei fraction (IST-MEL1) [%] | cleaved PARP positive nuclei fraction (LOXIMVI) [%]
1 | CO[C@H]1C[C@@H]2CC[C@@H](C)[C@@](O)(O2)C(=O)C(=O)N2CCCC[C@H]2C(=O)O[C@H]([C@H](C)C[C@@H]2CC[C@@H](OCCO)[C@H](OC)C2)CC(=O)[C@H](C)/C=C(\C)[C@@H](O)[C@@H](OC)C(=O)[C@H](C)C[C@H](C)/C=C/C=C/C=C/1C [everolimus] + CCc1ccc(CCOc2ccc(CC3SC(=O)NC3=O)cc2)nc1 [pioglitazone] (first compound 0.02 µM, partner dose 2 µM) | 55.7 | 40.3 | 79.4 | 45.5 | 111 | 70.7 | 187 | 225 | 148 | 159 | 130 | 57.2 | 121 | 142
2 | Nc1ncn([C@H]2C[C@H](O)[C@@H](CO)O2)c(=O)n1 [decitabine] + COc1ccc(COc2ccc(Cc3cnc(N)nc3N)cc2OC)cc1 [GW2580] (first compound 0.1 µM, partner dose 1 µM) | 30.4 | 143 | 79.4 | 52.7 | 122 | 135 | 101 | 245 | 71.1 | 68.3 | 114 | 303 | 149 | 51.2
3 | CNC(=O)c1cc(Oc2ccc(NC(=O)Nc3ccc(Cl)c(C(F)(F)F)c3)cc2)ccn1 [sorafenib] + CC(C)CCN1c2nc(Nc3cc(F)c(O)c(F)c3)ncc2N(C)C(=O)C1C [BID1870] (first compound 0.4 µM, partner dose 0.2 µM) | 39.2 | 39.7 | 17.5 | 102 | 118 | 62.2 | 100 | 70.2 | 72.3 | 65.1 | 82.9 | 71.4 | 33.9 | 88.3
